# No constants are given. Whether binding was seen depends on the method and setting. Binding seen in cells or lysates may run through a third protein. Some binding calls cover weakened binding; strength is not graded here. Sequences can lack the tags named with a protein.
# By UniProt entry, the sequences of proteins in these tests, tags left out. Residues count along the entry.
# UniProt Q9Y3D2, residues 21-182: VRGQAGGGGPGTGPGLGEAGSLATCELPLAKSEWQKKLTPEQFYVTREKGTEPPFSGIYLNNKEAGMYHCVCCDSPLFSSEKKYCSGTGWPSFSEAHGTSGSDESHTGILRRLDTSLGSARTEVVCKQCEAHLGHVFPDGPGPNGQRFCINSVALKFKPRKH
# T1: His-hGrpEL1, not treated with H2O2 (human) (UniProt Q9HAV7)
# T1 sequence: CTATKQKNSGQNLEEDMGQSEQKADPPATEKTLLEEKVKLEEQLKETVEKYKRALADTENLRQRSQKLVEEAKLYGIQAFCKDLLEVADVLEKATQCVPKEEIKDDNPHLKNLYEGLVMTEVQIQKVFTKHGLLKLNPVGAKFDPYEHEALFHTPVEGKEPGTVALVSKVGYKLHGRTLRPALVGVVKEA
# Target: T1, His-hGrpEL1, not treated with H2O2 (human)
# Assay: pull-down; in vitro Ni-NTA pull-down: 10 ug purified His-tagged bait (His-hGrpEL1 or His-Mrp6), pre-treated without or with H2O2 (increasing concentrations, 2 hrs), bound to Ni-NTA beads; 100 ug mitochondrial lysate (or cytosol lysate for Flag-Mxr1) of yeast expressing the Flag-Msr passed through; 3 washes with 10 mM imidazole buffer; immunoblot with Flag, GrpEL1 and His antibodies; only the target purified
row,binding,Molecule
1,binds weakly,Flag-MsrB2 (human methionine-R-sulfoxide reductase B2) (from UniProt Q9Y3D2 21-182) (enzyme)
2,binds weakly,"Flag-yMxr2 (yeast mitochondrial methionine sulfoxide reductase 2) (enzyme, UniProt P25566 1-168) MNKWSRLYVITVRRTFPGRRNIVLTQYWNKSKKMSDESNDVKWNDALTPLQLMVLRDKATERPNTGAYLHTNESGVYHCANCDRPLYSSKAKFDARCGWPAFYEEVSPGAITYHRDNSLMPARVEICCARCGGHLGHVFEGEGWKQLLNLPKDTRHCVNSASLNLKKD"

# The next lines start with the molecule.
row,Molecule,binding
1,"Flag-Su9-MsrA (human methionine-S-sulfoxide reductase A with Su9 MTS) (enzyme, UniProt Q9UJ68 67-235) MAVFGMGCFWGAERKFWVLKGVYSTQVGFAGGYTSNPTYKEVCSEKTGHAEVVRVVYQPEHMSFEELLKVFWENHDPTQGMRQGNDHGTQYRSAIYPTSAKQMEAALSSKENYQKVLSEHGFGPITTDIREGQTFYYAEDYHQQYLSKNPNGYCGLGGTGVSCPVGIKK",no binding
2,"Flag-yMxr1 (yeast cytosolic methionine sulfoxide reductase 1) (enzyme, UniProt P40029 1-184) MSSLISKTIKYDPAKDKLITLACGCFWGTEHMYRKYLNDRIVDCKVGYANGEESKKDSPSSVSYKRVCGGDTDFAEVLQVSYNPKVITLRELTDFFFRIHDPTTSNSQGPDKGTQYRSGLFAHSDADLKELAKIKEEWQPKWGNKIATVIEPIKNFYDAEEYHQLYLDKNPQGYACPTHYLREM",no binding

# Source: paper PMC5807549
